According to the supplement of paper PMC10849652:
Some of the results follow.

Chains of the proteins cited; added tags and fusions are not shown. Lines headed by an entry give the natural chain unless they say otherwise; changes in a name come on top.
UniProt Q9UMS0: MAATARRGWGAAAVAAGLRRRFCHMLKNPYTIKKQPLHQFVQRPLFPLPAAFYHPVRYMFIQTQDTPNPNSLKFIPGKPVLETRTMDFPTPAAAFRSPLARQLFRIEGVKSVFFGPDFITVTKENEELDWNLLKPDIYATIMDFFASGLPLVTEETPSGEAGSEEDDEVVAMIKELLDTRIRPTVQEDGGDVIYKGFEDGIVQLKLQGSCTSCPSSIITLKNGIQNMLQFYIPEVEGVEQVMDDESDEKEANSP
UniProt Q6KC79: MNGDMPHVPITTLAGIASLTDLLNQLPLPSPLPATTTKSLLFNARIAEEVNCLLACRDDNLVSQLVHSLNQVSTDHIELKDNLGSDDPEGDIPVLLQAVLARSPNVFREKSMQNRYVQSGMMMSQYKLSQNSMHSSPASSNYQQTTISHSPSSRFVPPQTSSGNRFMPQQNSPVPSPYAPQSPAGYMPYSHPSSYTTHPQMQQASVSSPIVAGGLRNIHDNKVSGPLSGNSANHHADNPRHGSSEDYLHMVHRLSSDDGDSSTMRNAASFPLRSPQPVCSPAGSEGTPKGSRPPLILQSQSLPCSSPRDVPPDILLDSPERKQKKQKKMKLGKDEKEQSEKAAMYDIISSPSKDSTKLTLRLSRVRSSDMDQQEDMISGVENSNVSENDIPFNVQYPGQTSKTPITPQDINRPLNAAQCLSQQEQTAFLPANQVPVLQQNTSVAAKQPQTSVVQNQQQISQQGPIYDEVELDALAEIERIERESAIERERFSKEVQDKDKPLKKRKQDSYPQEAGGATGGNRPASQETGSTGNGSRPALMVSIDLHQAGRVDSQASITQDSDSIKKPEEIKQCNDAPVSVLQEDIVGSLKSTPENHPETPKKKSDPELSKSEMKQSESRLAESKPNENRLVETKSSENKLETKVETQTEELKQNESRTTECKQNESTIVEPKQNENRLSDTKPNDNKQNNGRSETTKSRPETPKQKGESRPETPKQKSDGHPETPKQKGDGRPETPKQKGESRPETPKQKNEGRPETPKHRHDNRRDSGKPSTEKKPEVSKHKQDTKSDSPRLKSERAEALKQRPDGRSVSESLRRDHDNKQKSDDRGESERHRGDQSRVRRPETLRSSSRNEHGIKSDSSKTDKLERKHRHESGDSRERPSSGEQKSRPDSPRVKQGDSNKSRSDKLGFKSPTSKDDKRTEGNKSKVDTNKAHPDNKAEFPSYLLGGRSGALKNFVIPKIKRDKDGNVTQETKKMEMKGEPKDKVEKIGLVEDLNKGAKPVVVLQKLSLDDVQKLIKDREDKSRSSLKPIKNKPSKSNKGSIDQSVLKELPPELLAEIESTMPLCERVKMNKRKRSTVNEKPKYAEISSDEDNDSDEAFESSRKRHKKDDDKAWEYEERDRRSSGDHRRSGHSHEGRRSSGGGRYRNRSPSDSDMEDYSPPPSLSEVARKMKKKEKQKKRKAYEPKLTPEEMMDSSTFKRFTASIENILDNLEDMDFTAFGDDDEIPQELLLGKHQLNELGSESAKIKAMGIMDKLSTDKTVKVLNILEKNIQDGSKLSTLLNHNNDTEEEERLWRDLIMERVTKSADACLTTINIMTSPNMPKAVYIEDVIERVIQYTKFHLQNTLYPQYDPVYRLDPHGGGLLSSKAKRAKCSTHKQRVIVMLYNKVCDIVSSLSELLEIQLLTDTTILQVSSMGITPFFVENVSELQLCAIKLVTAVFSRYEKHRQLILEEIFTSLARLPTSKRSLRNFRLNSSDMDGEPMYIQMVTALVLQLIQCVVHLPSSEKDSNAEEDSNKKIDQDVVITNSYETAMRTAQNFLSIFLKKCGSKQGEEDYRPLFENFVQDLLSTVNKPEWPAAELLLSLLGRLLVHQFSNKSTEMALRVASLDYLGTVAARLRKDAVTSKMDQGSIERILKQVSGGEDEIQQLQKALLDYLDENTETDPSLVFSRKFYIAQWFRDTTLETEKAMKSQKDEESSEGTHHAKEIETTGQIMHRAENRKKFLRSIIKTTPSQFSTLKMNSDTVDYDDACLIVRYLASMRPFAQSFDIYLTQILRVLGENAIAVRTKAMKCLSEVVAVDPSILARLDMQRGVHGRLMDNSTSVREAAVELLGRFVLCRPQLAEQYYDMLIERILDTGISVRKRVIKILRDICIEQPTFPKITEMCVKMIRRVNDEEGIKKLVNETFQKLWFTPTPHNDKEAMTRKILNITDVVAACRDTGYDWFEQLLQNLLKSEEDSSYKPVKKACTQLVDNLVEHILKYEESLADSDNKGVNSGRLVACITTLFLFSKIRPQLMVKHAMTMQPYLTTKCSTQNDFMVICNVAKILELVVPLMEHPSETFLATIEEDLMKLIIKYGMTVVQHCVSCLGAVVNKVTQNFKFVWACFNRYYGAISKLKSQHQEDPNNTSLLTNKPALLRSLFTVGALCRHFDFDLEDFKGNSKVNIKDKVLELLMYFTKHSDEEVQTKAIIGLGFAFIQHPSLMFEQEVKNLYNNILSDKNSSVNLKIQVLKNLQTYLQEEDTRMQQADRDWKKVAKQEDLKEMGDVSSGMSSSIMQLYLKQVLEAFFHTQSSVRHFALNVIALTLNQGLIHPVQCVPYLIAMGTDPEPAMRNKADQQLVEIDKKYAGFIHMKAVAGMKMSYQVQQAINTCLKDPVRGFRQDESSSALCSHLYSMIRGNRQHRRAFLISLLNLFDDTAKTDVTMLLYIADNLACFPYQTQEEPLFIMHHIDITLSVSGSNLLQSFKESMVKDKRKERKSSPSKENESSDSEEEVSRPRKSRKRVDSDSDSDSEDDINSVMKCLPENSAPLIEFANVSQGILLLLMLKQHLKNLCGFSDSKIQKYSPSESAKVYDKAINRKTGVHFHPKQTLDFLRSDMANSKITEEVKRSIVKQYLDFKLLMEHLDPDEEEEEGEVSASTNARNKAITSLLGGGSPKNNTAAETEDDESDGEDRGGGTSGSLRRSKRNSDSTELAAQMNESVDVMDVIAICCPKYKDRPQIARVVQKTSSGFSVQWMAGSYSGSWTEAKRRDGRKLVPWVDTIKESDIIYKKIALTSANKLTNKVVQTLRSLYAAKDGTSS
UniProt O94916: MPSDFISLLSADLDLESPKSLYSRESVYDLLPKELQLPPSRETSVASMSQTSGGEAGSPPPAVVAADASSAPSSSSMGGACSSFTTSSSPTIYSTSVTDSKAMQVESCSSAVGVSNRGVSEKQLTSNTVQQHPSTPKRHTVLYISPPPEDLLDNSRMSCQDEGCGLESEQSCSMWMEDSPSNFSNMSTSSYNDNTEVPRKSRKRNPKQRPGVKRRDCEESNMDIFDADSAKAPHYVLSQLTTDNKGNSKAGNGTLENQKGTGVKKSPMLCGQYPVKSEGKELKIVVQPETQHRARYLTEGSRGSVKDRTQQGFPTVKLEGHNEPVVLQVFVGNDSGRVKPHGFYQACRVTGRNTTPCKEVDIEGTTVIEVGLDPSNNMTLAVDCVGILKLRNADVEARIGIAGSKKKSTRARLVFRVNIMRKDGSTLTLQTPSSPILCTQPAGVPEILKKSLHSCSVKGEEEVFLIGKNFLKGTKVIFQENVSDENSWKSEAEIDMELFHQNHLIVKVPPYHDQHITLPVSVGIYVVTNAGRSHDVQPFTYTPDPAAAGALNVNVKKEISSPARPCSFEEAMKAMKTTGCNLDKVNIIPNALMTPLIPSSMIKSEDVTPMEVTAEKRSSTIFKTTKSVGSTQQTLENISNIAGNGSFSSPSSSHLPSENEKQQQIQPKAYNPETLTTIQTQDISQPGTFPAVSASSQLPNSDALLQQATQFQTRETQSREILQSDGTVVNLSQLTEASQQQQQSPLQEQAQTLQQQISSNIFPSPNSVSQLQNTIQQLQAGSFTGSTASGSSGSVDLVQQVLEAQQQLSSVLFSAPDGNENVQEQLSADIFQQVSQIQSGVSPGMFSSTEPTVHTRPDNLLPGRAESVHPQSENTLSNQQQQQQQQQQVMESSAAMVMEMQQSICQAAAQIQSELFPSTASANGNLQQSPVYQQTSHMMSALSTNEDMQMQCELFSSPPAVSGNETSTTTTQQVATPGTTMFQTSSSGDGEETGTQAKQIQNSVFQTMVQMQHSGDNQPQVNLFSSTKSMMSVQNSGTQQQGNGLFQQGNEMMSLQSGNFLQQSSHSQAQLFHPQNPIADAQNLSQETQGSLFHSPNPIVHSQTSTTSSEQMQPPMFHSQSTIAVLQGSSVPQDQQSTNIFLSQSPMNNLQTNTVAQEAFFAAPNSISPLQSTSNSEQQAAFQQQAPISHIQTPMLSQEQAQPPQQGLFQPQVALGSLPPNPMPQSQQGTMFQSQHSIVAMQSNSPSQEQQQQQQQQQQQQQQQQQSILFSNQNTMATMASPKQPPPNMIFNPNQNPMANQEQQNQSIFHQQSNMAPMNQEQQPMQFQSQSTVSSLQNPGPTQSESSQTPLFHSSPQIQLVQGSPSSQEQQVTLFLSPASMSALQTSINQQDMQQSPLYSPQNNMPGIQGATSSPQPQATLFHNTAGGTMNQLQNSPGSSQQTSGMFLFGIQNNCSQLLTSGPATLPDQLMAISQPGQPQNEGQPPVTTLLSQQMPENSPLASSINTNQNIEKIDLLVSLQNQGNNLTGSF
UniProt Q9NQR4: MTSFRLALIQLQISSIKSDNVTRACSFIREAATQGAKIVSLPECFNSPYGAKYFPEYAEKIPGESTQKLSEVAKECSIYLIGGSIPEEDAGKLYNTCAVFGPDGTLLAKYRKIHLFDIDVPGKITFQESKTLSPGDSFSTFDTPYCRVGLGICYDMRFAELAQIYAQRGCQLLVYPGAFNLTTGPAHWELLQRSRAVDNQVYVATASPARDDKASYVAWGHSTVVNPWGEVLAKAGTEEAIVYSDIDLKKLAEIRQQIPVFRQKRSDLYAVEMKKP
UniProt O00221: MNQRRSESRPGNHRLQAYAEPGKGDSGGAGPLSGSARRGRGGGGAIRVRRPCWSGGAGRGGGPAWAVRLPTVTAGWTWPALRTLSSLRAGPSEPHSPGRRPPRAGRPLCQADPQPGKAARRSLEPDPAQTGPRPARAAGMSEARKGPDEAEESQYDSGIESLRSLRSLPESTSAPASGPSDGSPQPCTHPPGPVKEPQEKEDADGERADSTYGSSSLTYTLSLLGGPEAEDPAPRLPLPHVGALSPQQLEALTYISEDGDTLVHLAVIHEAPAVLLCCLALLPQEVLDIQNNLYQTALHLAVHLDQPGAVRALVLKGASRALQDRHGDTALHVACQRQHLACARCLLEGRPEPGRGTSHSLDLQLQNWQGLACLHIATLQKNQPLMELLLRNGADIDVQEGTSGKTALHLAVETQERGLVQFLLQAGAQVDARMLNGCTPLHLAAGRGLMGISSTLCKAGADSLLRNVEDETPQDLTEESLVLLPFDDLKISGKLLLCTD
UniProt O43678, whole entry, looked up: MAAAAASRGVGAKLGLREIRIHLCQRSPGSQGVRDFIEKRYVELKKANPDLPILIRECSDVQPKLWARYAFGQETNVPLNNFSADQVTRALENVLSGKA
UniProt Q16718, whole entry, looked up: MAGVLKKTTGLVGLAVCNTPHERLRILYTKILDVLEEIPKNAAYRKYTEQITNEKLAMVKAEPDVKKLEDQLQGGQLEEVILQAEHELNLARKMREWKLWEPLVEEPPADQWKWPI
UniProt O43181, whole entry, looked up: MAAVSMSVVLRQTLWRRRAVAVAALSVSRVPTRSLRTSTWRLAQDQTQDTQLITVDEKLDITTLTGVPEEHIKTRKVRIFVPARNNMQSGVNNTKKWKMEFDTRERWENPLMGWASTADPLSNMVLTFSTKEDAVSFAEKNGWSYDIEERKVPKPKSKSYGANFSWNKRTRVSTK
UniProt O95298, whole entry, looked up: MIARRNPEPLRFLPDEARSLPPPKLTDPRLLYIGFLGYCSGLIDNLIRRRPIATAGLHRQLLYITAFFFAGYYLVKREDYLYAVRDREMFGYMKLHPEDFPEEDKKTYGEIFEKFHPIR
UniProt Q92692, whole entry, looked up: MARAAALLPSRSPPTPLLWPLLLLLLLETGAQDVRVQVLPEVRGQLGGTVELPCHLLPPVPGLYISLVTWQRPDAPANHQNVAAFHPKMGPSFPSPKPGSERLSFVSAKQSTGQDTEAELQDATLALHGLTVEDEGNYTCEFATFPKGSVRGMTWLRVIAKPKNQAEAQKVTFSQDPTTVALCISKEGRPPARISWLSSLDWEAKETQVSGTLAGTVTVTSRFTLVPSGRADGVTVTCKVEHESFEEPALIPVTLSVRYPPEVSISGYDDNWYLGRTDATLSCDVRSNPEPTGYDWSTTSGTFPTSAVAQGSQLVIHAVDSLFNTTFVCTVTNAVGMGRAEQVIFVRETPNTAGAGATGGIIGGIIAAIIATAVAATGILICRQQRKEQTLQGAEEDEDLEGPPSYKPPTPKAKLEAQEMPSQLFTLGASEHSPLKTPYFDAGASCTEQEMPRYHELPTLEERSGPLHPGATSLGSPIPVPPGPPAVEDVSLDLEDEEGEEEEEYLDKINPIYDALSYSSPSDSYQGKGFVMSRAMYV
UniProt Q9Y6M9, whole entry, looked up: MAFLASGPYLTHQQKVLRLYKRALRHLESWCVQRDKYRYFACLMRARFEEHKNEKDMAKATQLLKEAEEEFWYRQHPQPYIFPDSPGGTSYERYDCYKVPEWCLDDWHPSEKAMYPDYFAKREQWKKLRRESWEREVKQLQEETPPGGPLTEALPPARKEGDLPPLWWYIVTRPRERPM

What was measured:
Assay in all cases: log2 fold change, soluble protein after heating vs DMSO (PISA); higher = thermal stabilisation; K562 lysate, 10 uM; active = over 0.2 and 3.5 SD of the protein, either way, in both replicates (recomputed)
alvocidib = compound: CN1CC[C@H](c2c(O)cc(O)c3c(=O)cc(-c4ccccc4Cl)oc23)[C@H](O)C1 [alvocidib]
Method in brief: (§1)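 Pellets of K562 cells were dounce-homogenised in PBS pH 7.4 with 1 mM MgCl2, and the crude extract was held at 1 mg/mL protein for a 30 min treatment with 10 μM compound. Aliquots were heated for 3 min over 48°C-58°C and pooled before NP-40 was added to 0.5% at 4°C. The supernatant from 21,000xg for 90 min was quantified by TMTpro 16plex LC-MS/MS with channel sums equalised. Values are reported from duplicates as log-two fold change in thermal stability relative to solvent controls.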

Tubastatin A = compound: CN1CCc2c(c3ccccc3n2Cc2ccc(C(=O)NO)cc2)C1 [Tubastatin A]
Method in brief: as §1

[1] = compound: CNC(=O)C1=CC=CC=C1NC2=NC(=NC=C2Cl)NC3=C(C=C(C=C3)N4CCOCC4)OC
Method in brief: as §1

defactinib = compound: CNC(=O)c1ccc(Nc2ncc(C(F)(F)F)c(NCc3nccnc3N(C)S(C)(=O)=O)n2)cc1 [defactinib]
Method in brief: as §1

[2] = compound: CNc1nc(-c2ccc3c(N)n[nH]c3c2)cc(N2C[C@@H](C(=O)NC3CCCCC3)CC[C@H]2C)n1
Method in brief: as §1

encorafenib = compound: COC(=O)N[C@@H](C)CNc1nccc(-c2cn(C(C)C)nc2-c2cc(Cl)cc(NS(C)(=O)=O)c2F)n1 [encorafenib]
Method in brief: as §1

[3] = compound: COC(=O)[C@H](CCSC)NC(=O)C1=C(C=C(C=C1)NC[C@H](CS)N)C2=CC=CC=C2
Method in brief: as §1

alisertib = compound: COc1cc(Nc2ncc3c(n2)-c2ccc(Cl)cc2C(c2c(F)cccc2OC)=NC3)ccc1C(=O)O [alisertib]
Method in brief: as §1

[4] = compound: COc1cc2nc(-c3cc(F)ccc3O)nc(N[C@@H]3CNC[C@H]3C(C)(C)O)c2cc1OC
Method in brief: as §1

gefitinib = compound: COc1cc2ncnc(Nc3ccc(F)c(Cl)c3)c2cc1OCCCN1CCOCC1 [gefitinib]
Method in brief: as §1

Row | Target | log2 fold change (alvocidib) | log2 fold change (Tubastatin A) | log2 fold change [1] | log2 fold change (defactinib) | log2 fold change [2] | log2 fold change (encorafenib) | log2 fold change [3] | log2 fold change (alisertib) | log2 fold change [4] | log2 fold change (gefitinib)
1 | NEBL isoform 2 (UniProt O76041) | inactive: -0.079 | inactive: 0.07 | inactive: 0.012 | inactive: 0.011 | inactive: 0.023 | inactive: 0.009 | inactive: -0.043 | inactive: -0.024 | inactive: -0.003 | inactive: 0.037
2 | NFKB2 (UniProt Q00653) | inactive: 0.011 | inactive: -0.103 | inactive: 0.021 | inactive: -0.016 | inactive: -0.042 | inactive: 0.081 | inactive: 0.101 | inactive: 0.01 | inactive: -0.021 | inactive: -0.015
3 | NFU1 (UniProt Q9UMS0) | inactive: 0.048 | inactive: 0.026 | inactive: -0.001 | inactive: -0.019 | inactive: 0.018 | inactive: -0.008 | inactive: -0.027 | inactive: 0.046 | inactive: 0.012 | inactive: -0.061
4 | NIPBL (UniProt Q6KC79) | inactive: -0.008 | inactive: -0.183 | inactive: -0.04 | inactive: 0.006 | inactive: 0 | inactive: 0.008 | inactive: 0.09 | inactive: -0.066 | inactive: 0.035 | inactive: 0.027
5 | NFAT5 isoform 5 (UniProt O94916) | inactive: -0.026 | inactive: 0.003 | inactive: -0.027 | inactive: 0.007 | inactive: 0.077 | inactive: 0.043 | inactive: -0.041 | inactive: -0.072 | inactive: -0.01 | active: 0.454
6 | NIT2 (UniProt Q9NQR4) | inactive: 0.046 | inactive: 0.047 | inactive: -0.003 | inactive: -0.05 | inactive: 0.013 | inactive: -0.032 | inactive: 0.082 | inactive: 0.012 | inactive: 0.019 | inactive: -0.017
7 | NHEJ1 (UniProt Q9H9Q4) | inactive: -0.059 | inactive: 0.062 | inactive: 0.033 | inactive: -0.124 | inactive: 0.067 | inactive: 0.033 | inactive: 0 | inactive: 0.017 | inactive: 0.022 | inactive: -0.199
8 | NDUFS3 (UniProt O75489) | inactive: 0.003 | inactive: 0.022 | inactive: -0.003 | inactive: 0.034 | inactive: -0.014 | inactive: -0.015 | inactive: -0.034 | inactive: 0.009 | inactive: -0.018 | inactive: -0.017
9 | NFKBIE (UniProt O00221) | inactive: -0.068 | inactive: 0.029 | inactive: 0.055 | inactive: 0.054 | inactive: 0.013 | inactive: 0.038 | inactive: -0.14 | inactive: 0.047 | inactive: -0.03 | inactive: 0.014
10 | NFATC2 (UniProt Q13469) | inactive: -0.12 | inactive: -0.118 | inactive: 0.021 | inactive: -0.028 | inactive: 0.06 | inactive: 0.004 | inactive: 0.1 | inactive: -0.047 | inactive: -0.007 | inactive: -0.025
11 | NDUFV2 (UniProt P19404) | inactive: -0.02 | inactive: 0.029 | inactive: -0.023 | inactive: 0.024 | inactive: 0.002 | inactive: 0.016 | inactive: -0.046 | inactive: -0.027 | inactive: -0.003 | inactive: 0.053
12 | NDUFA2 (UniProt O43678) | inactive: 0.063 | inactive: 0.063 | inactive: 0.04 | inactive: 0.082 | inactive: -0.022 | inactive: -0.07 | inactive: -0.01 | inactive: 0.051 | inactive: -0.013 | inactive: -0.034
13 | NDUFA5 (UniProt Q16718) | inactive: 0.079 | inactive: 0.085 | inactive: 0.028 | inactive: 0.099 | inactive: 0.059 | inactive: 0.019 | inactive: -0.15 | inactive: -0.001 | inactive: -0.052 | inactive: -0.157
14 | NEK1 isoform 3 (UniProt Q96PY6) | inactive: 0.002 | inactive: -0.078 | inactive: -0.018 | inactive: 0.014 | inactive: -0.003 | inactive: -0.005 | inactive: 0.038 | inactive: -0.052 | inactive: -0.078 | inactive: -0.044
15 | NELFE (UniProt P18615) | inactive: -0.062 | inactive: 0.034 | inactive: -0.008 | inactive: 0.013 | inactive: -0.007 | inactive: 0.015 | inactive: -0.031 | inactive: 0.034 | inactive: -0.013 | inactive: -0.044
16 | NDUFS4 (UniProt O43181) | inactive: -0.03 | inactive: -0.017 | inactive: -0.052 | inactive: -0.008 | inactive: -0.005 | inactive: -0.016 | inactive: -0.029 | inactive: -0.04 | inactive: -0.018 | inactive: 0.042
17 | NDUFB4 (UniProt O95168) | inactive: 0.108 | inactive: 0.043 | inactive: -0.02 | inactive: 0.016 | inactive: 0.074 | inactive: -0.013 | inactive: 0.07 | inactive: -0.027 | inactive: 0.005 | inactive: -0.057
18 | NF2 (UniProt P35240) | inactive: -0.03 | inactive: 0.042 | inactive: 0.02 | inactive: 0.047 | inactive: 0.029 | inactive: -0.054 | inactive: -0.025 | inactive: 0.004 | inactive: 0.037 | inactive: -0.002
19 | NDST2 (UniProt P52849) | inactive: 0.097 | inactive: -0.037 | inactive: -0.087 | inactive: 0.01 | inactive: 0.024 | inactive: 0.13 | inactive: 0.253 | inactive: -0.023 | inactive: 0.057 | inactive: 0.035
20 | NDUFC2 (UniProt O95298) | inactive: 0.014 | inactive: 0.036 | inactive: -0.017 | inactive: -0.007 | inactive: 0.099 | inactive: 0.007 | inactive: -0.028 | inactive: -0.036 | inactive: -0.016 | inactive: 0.024
21 | NFATC2IP (UniProt Q8NCF5) | inactive: -0.015 | inactive: 0.002 | inactive: 0.052 | inactive: 0 | inactive: 0.002 | inactive: 0.003 | active: -0.208 | inactive: -0.009 | inactive: -0.001 | inactive: 0.023
22 | NECTIN2 isoform 2 (UniProt Q92692) | inactive: 0 | inactive: -0.035 | inactive: -0.163 | inactive: -0.191 | inactive: -0.125 | inactive: 0.014 | inactive: -0.037 | inactive: 0.033 | inactive: 0.109 | inactive: 0.085
23 | NIP7 (UniProt Q9Y221) | inactive: -0.007 | inactive: -0.002 | inactive: 0.048 | inactive: -0.015 | inactive: -0.02 | inactive: 0.044 | inactive: -0.058 | inactive: 0.017 | inactive: -0.01 | inactive: -0.037
24 | NDUFAF2 (UniProt Q8N183) | inactive: -0.061 | inactive: -0.058 | inactive: 0.018 | inactive: -0.005 | inactive: 0.087 | inactive: -0.002 | inactive: -0.006 | inactive: 0.01 | inactive: -0.014 | inactive: 0.017
25 | NF1 (UniProt P21359) | inactive: 0.03 | inactive: -0.098 | inactive: 0.029 | inactive: 0.012 | inactive: 0.009 | inactive: 0.026 | inactive: -0.267 | inactive: 0.03 | inactive: 0.006 | inactive: 0.058
26 | NELFA (UniProt Q9H3P2) | inactive: 0.036 | inactive: -0.139 | inactive: 0.022 | inactive: 0.056 | inactive: 0.051 | inactive: 0 | inactive: 0.025 | inactive: 0.006 | inactive: -0.006 | inactive: -0.015
27 | NDUFB9 (UniProt Q9Y6M9) | inactive: 0.069 | inactive: 0.039 | inactive: 0.004 | inactive: -0.018 | inactive: -0.01 | inactive: -0.006 | inactive: 0.02 | inactive: -0.042 | inactive: -0.049 | inactive: -0.011
28 | NDUFB6 (UniProt O95139) | inactive: -0.048 | inactive: 0.016 | inactive: -0.007 | inactive: 0.01 | inactive: -0.017 | inactive: 0.042 | inactive: -0.042 | inactive: -0.013 | inactive: 0.008 | inactive: 0.031
29 | NLN (UniProt Q9BYT8) | inactive: 0.038 | inactive: 0.046 | inactive: 0.003 | inactive: -0.009 | inactive: -0.002 | inactive: 0.006 | inactive: 0.045 | inactive: 0.013 | inactive: 0.011 | inactive: -0.009
30 | NIPSNAP2 (UniProt O75323) | inactive: 0.027 | inactive: -0.015 | inactive: 0.044 | inactive: 0.048 | inactive: 0.077 | inactive: -0.02 | inactive: 0.163 | inactive: 0.04 | inactive: -0.073 | inactive: -0.044

Random excerpt: two entries already listed.
Row | Target | log2 fold change (alvocidib) | log2 fold change (Tubastatin A) | log2 fold change [1] | log2 fold change (defactinib) | log2 fold change [2] | log2 fold change (encorafenib) | log2 fold change [3] | log2 fold change (alisertib) | log2 fold change [4] | log2 fold change (gefitinib)
19 | NDST2 (UniProt P52849) | inactive: 0.097 | inactive: -0.037 | inactive: -0.087 | inactive: 0.01 | inactive: 0.024 | inactive: 0.13 | inactive: 0.253 | inactive: -0.023 | inactive: 0.057 | inactive: 0.035
6 | NIT2 (UniProt Q9NQR4) | inactive: 0.046 | inactive: 0.047 | inactive: -0.003 | inactive: -0.05 | inactive: 0.013 | inactive: -0.032 | inactive: 0.082 | inactive: 0.012 | inactive: 0.019 | inactive: -0.017
